Among the data in publication PMC5207070, “The Amino-terminal Domain of the Androgen Receptor Co-opts Extracellular Signal-regulated Kinase (ERK) Docking Sites in ELK1 Protein to Induce Sustained Gene Activation That Supports Prostate Cancer Cell Growth*^([image sbox.jpg])” (The Journal of Biological Chemistry, 2016) are binding values, retold here.

Common to all, as to test: two-hybrid; mammalian two-hybrid in HeLa cells with stably integrated GAL4-TATA-LUC and stably expressed AR(A/B)-VP16; Gal4-ELK1 fusion constructs transfected; luciferase in lysates 48 h after transfection
Test [1] concerns the target T1, Gal4-ELK1 construct in which the D-box region (ELK1 residues 308–321) was deleted (human) (UniProt P19419).
T1 sequence: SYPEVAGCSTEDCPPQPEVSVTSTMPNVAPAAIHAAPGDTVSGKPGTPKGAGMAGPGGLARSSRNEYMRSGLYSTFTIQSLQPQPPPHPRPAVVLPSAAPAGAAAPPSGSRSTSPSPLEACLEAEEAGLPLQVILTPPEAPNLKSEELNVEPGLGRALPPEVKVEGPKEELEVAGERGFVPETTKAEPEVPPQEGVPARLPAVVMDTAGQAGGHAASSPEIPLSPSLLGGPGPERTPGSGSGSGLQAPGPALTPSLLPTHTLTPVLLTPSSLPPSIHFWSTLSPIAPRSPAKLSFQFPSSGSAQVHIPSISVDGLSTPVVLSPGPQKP

The target of test [2] is T2, Gal4-ELK1 construct in which the FQFP motif was mutated to FQLA (human) (UniProt P19419).
T2 sequence: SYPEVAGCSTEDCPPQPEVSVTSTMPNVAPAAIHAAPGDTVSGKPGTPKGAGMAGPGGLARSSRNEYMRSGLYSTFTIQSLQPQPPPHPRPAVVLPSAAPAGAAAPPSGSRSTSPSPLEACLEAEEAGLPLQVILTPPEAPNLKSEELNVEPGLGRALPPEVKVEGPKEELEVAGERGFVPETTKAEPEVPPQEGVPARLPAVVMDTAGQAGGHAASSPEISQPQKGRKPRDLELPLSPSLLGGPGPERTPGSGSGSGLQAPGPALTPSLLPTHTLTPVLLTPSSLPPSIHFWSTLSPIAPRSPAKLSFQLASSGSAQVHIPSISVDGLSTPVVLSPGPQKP

Test [3] concerns the target T3, Gal4-ELK1 construct with both lesions (FQFP to FQLA and deletion of the D-box region 308–321) (human) (UniProt P19419).
T3 sequence: T1 sequence with F297L, P298A

In test [4] the target is T4, Gal4-ELK1 with deletion of residues 331–340 (human) (UniProt P19419).
T4 sequence: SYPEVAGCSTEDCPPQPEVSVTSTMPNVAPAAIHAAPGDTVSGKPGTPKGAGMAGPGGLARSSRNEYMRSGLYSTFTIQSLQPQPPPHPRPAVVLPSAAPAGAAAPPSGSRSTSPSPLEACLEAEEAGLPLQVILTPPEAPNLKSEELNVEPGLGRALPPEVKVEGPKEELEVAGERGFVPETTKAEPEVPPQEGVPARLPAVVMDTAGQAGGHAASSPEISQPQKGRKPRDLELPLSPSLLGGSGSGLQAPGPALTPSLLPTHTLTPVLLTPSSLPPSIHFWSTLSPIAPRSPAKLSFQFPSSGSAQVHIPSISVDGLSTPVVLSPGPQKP

The target in test [5] is T5, Gal4-ELK1 with deletion of residues 341–350 (human) (UniProt P19419).
T5 sequence: T4 sequence with S245P, S247P, G248E, L249R, Q250T, A251P, P252G, G253S, P254G

The target in test [6] is T6, Gal4-ELK1 with internal deletion 351–371 (human) (UniProt P19419).
T6 sequence: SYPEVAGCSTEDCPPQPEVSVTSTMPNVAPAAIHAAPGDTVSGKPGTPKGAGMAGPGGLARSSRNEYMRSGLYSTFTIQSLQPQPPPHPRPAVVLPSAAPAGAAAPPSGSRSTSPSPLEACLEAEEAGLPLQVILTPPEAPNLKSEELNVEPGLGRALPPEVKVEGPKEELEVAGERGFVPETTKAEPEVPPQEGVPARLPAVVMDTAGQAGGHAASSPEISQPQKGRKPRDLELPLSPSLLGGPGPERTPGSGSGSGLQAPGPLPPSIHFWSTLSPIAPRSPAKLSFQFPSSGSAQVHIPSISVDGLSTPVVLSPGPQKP

Test [7] has as its target T7, Gal4-ELK1(87–428) fusion protein (human) (UniProt P19419).
T7 sequence: T2 sequence with L311F, A312P

Changes are numbered by the printed parent chain. These are yes or no findings as the source states them, for the method shown. For some of these results: A result given as binding can be weak or reduced; the word gives no strength. For some of these results: Where a sequence is shown, tags or fusion partners need not be part of it.

With “AR(A/B)-VP16 fusion protein (AR A/B domain fused to the VP16 transactivation domain) (human) (domain or fragment)”, the binding result in test [1] was “no binding”; in test [2] it was “no binding”; in test [3], “no binding”; in test [4], “binds”; in test [5] it was “binds”; in test [6], “binds”. Further, the binding result in test [7] was “binds”.
